No constants are given. Whether binding was seen depends on the method and setting. Some results given as binding are weak or reduced against the parent protein; the word gives no strength.
Assays:
[1] = biological target: T1, rat PTH-1 receptor (rat, UniProt P25961 27-591); assay: radioligand competition, EW5 cells (rat PTH-1 receptor)
T1 sequence (looked up): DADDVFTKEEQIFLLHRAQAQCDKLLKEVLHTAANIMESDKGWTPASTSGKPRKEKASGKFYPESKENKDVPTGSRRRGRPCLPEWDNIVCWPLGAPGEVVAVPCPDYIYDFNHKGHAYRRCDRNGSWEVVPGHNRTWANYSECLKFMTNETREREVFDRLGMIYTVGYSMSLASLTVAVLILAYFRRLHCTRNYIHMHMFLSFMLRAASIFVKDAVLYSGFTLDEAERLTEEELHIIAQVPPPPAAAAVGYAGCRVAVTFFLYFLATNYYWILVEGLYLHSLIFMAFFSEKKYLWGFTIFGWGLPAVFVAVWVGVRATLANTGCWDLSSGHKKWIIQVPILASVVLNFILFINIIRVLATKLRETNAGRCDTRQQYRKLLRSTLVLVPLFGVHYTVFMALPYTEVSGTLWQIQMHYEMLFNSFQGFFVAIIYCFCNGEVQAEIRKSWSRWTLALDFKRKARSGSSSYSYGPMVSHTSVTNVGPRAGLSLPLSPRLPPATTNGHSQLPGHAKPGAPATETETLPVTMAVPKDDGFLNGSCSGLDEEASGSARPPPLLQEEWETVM
Excerpt: (§1) Cell layers were washed three times before solubilization for determination of cell-associated radioactivity.

[2] = biological target: T2, human PTH-1 receptor (human, UniProt Q03431 27-593); assay: radioligand competition, HKRK B7 cells (human PTH-1 receptor)
T2 sequence (looked up): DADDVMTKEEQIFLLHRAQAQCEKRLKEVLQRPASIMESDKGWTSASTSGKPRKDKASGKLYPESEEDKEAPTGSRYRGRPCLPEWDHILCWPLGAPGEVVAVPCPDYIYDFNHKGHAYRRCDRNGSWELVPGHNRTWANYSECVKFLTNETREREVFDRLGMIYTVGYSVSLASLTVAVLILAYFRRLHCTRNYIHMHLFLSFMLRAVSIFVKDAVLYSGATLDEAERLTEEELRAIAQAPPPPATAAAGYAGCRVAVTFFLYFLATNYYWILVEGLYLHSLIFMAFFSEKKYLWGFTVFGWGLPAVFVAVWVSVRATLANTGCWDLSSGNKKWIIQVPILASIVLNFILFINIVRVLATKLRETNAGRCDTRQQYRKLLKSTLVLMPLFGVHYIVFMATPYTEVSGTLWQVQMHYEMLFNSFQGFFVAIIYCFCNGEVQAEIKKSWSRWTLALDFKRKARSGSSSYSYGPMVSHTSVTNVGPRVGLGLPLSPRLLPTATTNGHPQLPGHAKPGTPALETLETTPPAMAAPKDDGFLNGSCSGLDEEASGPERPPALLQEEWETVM
Excerpt: as §1

Binder | binding [1] | binding [2]
SVSEIQLMHNLGKHLNSMERVEWLRKKLQDVHNY (chain 1: C-terminal amide) [hPTH-(1-34)] | binds | binds
VSEIQLMHNLGKHLNSMERVEWLRKKLQDVHNY (chain 1: C-terminal amide) [hPTH-(2-34)] | – | binds
